Among the data in paper doi:10.1101/2025.04.18.649598 are binding values, retold here.

Chains of the proteins cited; added tags and fusions are not shown.
UniProt Q921T2: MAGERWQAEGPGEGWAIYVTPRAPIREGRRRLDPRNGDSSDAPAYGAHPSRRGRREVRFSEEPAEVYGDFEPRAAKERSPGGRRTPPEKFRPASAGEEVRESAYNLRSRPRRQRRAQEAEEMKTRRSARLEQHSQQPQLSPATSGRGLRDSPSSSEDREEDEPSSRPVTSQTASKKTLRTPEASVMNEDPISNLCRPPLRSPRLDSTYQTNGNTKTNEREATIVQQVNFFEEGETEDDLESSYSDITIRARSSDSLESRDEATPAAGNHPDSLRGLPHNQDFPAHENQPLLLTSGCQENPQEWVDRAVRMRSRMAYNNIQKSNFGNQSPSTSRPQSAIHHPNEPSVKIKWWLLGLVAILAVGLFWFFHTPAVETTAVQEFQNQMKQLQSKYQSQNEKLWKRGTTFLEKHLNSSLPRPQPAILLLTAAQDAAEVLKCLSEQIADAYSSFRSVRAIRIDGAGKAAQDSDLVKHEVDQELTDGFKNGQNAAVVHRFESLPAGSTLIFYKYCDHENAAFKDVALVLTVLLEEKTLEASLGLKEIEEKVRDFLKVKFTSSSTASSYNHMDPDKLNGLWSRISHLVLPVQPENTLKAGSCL

In the test the target is murine Lap1b-TurboID-mNeonGreen (murine) (UniProt Q921T2). Description: proximity labelling.

No constants are given. Whether binding was seen depends on the method and setting. Binding seen in cells or lysates may run through a third protein. Here binding means that the protein was enriched with, or labelled near, the bait; the list need not be complete.

B1: Torsin1B (protein, UniProt Q9ER41 25-336)
chain: FEPVSVGIAIGAVSALTGYLSYTDFYCRFTECCHEERPLNTSALKLDLEEKLFGQHLATEVILKALTGFRNNKNSKKPLTLSLHGWAGTGKNFISQIVAENLYPKGLKSNFVHLFVSTLHFPHEQKIKVYQDQLQKWIRGNVSACGSSVFIFDEMDKLHPGIIDAIKPFLDYYEQVDGISYRRAIFIFLSNAGGDLITKTALDFWRAGRKREEIQLKDLEPVLSVGVFNNKHSGLWHSGLIDKNLIDYFIPFLPLEYKHVKMCVRAEMRARGAAVDEDVVTSVADEMTFFPKDEKIYSDKGCKTVQSRLDFH
Turning to B1, the binding entry is on record as “binds”.
